In PubChem BioAssay AID2517 (National Center for Advancing Translational Sciences (NCATS), 2010):
Out of some 350,000 compounds screened, about 1,200 (0.34%) were called active. The inconclusive results got no clear call from the source; some entries with a clear call stand among them for comparison. Calls follow the shape of the dose curve; as a rule, active = well fitted inhibition curve with a large enough effect; inconclusive = small, poorly fitted or top-dose-only effect; inactive = no such curve, though single readings can be large or run the other way. A potency beside an inconclusive call is a rough fit, not a confirmed value.
Also: nearly all actives have a fitted effect of over 55% in size.
Potency is read from the fitted curve at half-maximal effect.

Chains of the proteins cited; added tags and fusions are not shown.
UniProt P27695, whole entry, looked up: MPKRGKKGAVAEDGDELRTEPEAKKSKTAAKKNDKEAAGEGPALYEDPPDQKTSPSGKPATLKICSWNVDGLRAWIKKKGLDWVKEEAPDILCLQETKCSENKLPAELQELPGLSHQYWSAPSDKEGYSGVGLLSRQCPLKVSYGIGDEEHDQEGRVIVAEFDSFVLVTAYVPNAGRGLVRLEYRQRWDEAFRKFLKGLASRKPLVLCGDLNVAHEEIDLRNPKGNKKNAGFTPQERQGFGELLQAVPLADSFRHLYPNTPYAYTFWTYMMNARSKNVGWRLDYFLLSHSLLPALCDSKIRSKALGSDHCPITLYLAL

Each compound was assayed against DNA repair nuclease/redox regulator APEX1 (Homo sapiens) (UniProt P27695) (assay: qHTS Assay for Inhibitors of the Human Apurinic/apyrimidinic Endonuclease 1 (APE1)). Conditions: recombinant APE1, TAMRA/BHQ-2 abasic DNA cleavage fluorescence; series mostly up to 65.8 µM.
In short: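 Readout is kinetic fluorescence (ex 525, em 598 nm) from cleavage of 50 nM TAMRA/BHQ-2 THF abasic duplex by 0.75 nM APE1, compound added 15 min beforehand at RT.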
In the case of `CCCn1c(C)cc(-c2csc(N)n2)c1C`, the Potency is reported as inconclusive: 44.7 µM [inhibitor, single point].
For `C[C@]12CC[C@@H]3c4ccc(O)cc4CC[C@H]3[C@@H]1C[C@@H](O)[C@@H]2O[C@@H]1O[C@H](C(=O)O)[C@@H](O)[C@H](O)[C@H]1O`, the Potency was “inactive”.
For `NS(=O)(=O)c1ccc(NC(=O)COC(=O)C2CC(=O)N(Cc3ccccc3)C2)cc1` (stereo unspecified), the Potency was inconclusive: 31.6 µM [inhibitor, single point].
In the case of `COc1ccc(NC(=O)c2cc(NC(=O)C3CCCCC3C(=O)O)ccc2N2CCOCC2)cc1` (stereo unspecified), the Potency is reported as inconclusive: 0.134 µM [inhibitor, full curve, poor fit].
In the case of `Cc1cc(C)cc(OCC(=O)NCc2nc(-c3ccccc3)no2)c1`, the Potency is reported as inconclusive: 39.8 µM [inhibitor, single point].
In the case of `CCOC(=O)c1ccc(-n2c(CN3CCN(CCO)CC3)nc3ccc([N+](=O)[O-])cc3c2=O)cc1`, the Potency is reported as inconclusive: 11.2 µM [inhibitor, partial curve].
In the case of `O=C1C=C(c2ccc3cc[nH]c3c2)C[C@@H](c2ccc3c(c2)OCO3)C1`, the Potency is reported as active: 11.9 µM.
In the case of `CCN(CC(=O)NC1CCS(=O)(=O)C1)S(=O)(=O)c1ccc(Cl)c(C(F)(F)F)c1` (stereo unspecified), the Potency is reported as “inactive”.
In the case of `COc1cc(OC)cc(C(=O)NCC(=O)OCC(=O)N2c3ccccc3NC(=O)C2(C)C)c1`, the Potency is reported as “inactive”.
In the case of `COc1ccc([C@@H]2OC2(C(N)=O)C(N)=O)cc1`, the Potency is reported as inconclusive: 2.82 µM [inhibitor, partial curve, poor fit].
For `CC1CCCCC1NC(=O)COC(=O)c1c2c(nc3ccccc13)/C(=C/c1ccco1)CC2` (stereo unspecified), the Potency was inconclusive: 20 µM [inhibitor, single point].
`Cc1cccc(NCc2ccccc2O)c1` was tested, and the Potency was inconclusive: 0.224 µM [inhibitor, full curve].
For `COc1ccc(Nc2nc(-c3cccs3)cs2)c(OC)c1`, the Potency was inconclusive: 39.8 µM [inhibitor, single point].
With `COC(=O)c1nn2c(C(F)(F)F)cc(-c3ccc(Br)o3)nc2c1Br` the Potency was inconclusive: 8.91 µM [inhibitor, single point].
With `CC(=O)Nc1ccc(C(=O)Nc2ccc(S(=O)(=O)NCC3CCCO3)cc2)cc1` (stereo unspecified) the Potency was inconclusive: 39.8 µM [inhibitor, single point].
For `O=C(Cc1ccc(-c2ccccc2)cc1)NCc1ccccc1`, the Potency was inconclusive: 3.55 µM [inhibitor, single point].
With `CCOC(=O)c1c(-c2ccc(C)o2)csc1NC(=O)CN1CCN(CC)CC1` the Potency was “inactive”.
For `Cc1ccc(/C=C2/NC(=O)N(Cc3ccccc3)C2=O)s1`, the Potency was inconclusive: 1.78 µM [inhibitor, full curve, poor fit].
`CCOc1ccc(C(=O)c2ccc(O)c(O)c2O)cc1` was tested, and the Potency was inconclusive: 12.6 µM [inhibitor, partial curve].
For `Cc1ccc(S(=O)(=O)/C(C#N)=C/c2c(N3CCCCC3)nc3ccccn3c2=O)cc1`, the Potency was inconclusive: 10 µM [inhibitor, single point].
For `COc1ccc(C2C3C=CCC(c4cccc(-c5ccc(N(C)C)cc5)c4)C3C(=O)N2Cc2ccccc2)cc1Cl` (stereo unspecified), the Potency was “inactive”.
`CCOC(=O)c1cc(-c2ccc(/C=N\n3cnnc3)o2)ccc1Cl` was tested, and the Potency was “inactive”.
With `COc1ccccc1CNc1ncnc2ccc(-c3cccnc3)cc12` the Potency was inconclusive: 11.2 µM [inhibitor, partial curve].
`N#C/C(=C\c1ccc(-c2ccc(C(=O)O)cc2)o1)C(=O)NCC1CCCO1` (stereo unspecified) was tested, and the Potency was inconclusive: 7.94 µM [inhibitor, full curve, poor fit].
In the case of `Cc1cccc2c3c(ccc12)C1=C(C(=O)C3=O)[C@@H](C)CO1`, the Potency is reported as “inactive”.
In the case of `O=C(CCc1n[nH]c(=O)[nH]c1=O)N/N=C/c1ccco1`, the Potency is reported as active: 20 µM.
For `COc1cccc(OC)c1OC(=O)C1CC(=O)N(c2ccc3c(c2)OCCO3)C1` (stereo unspecified), the Potency was inconclusive: 23.8 µM [inhibitor, partial curve].
`Cc1cccc(-c2nc3ccccc3c(=O)n2NC(=O)/C=C/c2ccc([N+](=O)[O-])cc2)c1` was tested, and the Potency was inconclusive: 0.0631 µM [inhibitor, full curve, poor fit].
For `CO[C@H]1COC(=O)C/C=C\[C@H](C)[C@@H](OC)COC(=O)C/C=C\[C@@H]1C`, the Potency was inconclusive: 3.98 µM [inhibitor, single point].
For `COc1ccccc1-c1nc(C#N)c(N2CCN(c3ccccc3)CC2)o1`, the Potency was inconclusive: 50.1 µM [inhibitor, single point].
With `COC1C(O)C(CO)OC1n1cnc2c(NC3CCCCC3)ncnc21` (stereo unspecified) the Potency was inconclusive: 5.01 µM [inhibitor, single point].
In the case of `Cc1ccc(CNC(=O)[C@]2(C(F)(F)F)C[C@H](CCc3ccccc3)CCCO2)o1`, the Potency is reported as inconclusive: 10 µM [inhibitor, partial curve].
With `Oc1c(Cl)cc(Cl)cc1/C=N/NC(=S)NC1CC2C=CC1C2` (stereo unspecified) the Potency was “inactive”.
`Cc1ccc(F)cc1NCC(=O)Nc1ccc(Br)cc1` was tested, and the Potency was inconclusive: 0.0018 µM [inhibitor, full curve, poor fit].
In the case of `CCN1C(=O)/C(=C\c2ccco2)C(C(=O)OC)=C1C`, the Potency is reported as inconclusive: 35.5 µM [inhibitor, single point].
In the case of `Cc1nc(NCCc2cnc[nH]2)c2oc3ccccc3c2n1`, the Potency is reported as inconclusive: 0.708 µM [inhibitor, full curve, poor fit].
`CN1C(=O)c2ccccc2NC(=O)[C@]12O[C@@H]2c1cccc(O)c1` was tested, and the Potency was inconclusive: 35.5 µM [inhibitor, single point].
`C(=C\c1ccco1)/c1ccc2ccccc2n1` was tested, and the Potency was inconclusive: 15.8 µM [inhibitor, single point].
With `CCCC(=O)Oc1ccc(-c2nccc(C(OC)OC)n2)cc1` the Potency was inconclusive: 25.1 µM [inhibitor, partial curve, poor fit].
For `O=C1Nc2ccccc2SC(c2ccccc2)C1O` (stereo unspecified), the Potency was inconclusive: 28.2 µM [inhibitor, partial curve].
In the case of `Cc1c(Cl)cnn1CC(=O)NC1C(=O)N2C(C(=O)O)=C(CSc3nnnn3C)CSC12` (stereo unspecified), the Potency is reported as inconclusive: 31.6 µM [inhibitor, single point].
With `CCCCNc1nc(-c2ccccc2)nc(-n2ccnc2)n1` the Potency was inconclusive: 11.2 µM [inhibitor, partial curve].
`CC1CCc2nc3ccc(S(=O)(=O)N4CCC(C(=O)N5CCCCC5)CC4)cc3c(C(=O)O)c2C1` (stereo unspecified) was tested, and the Potency was “inactive”.
For `Cc1cc(=O)[nH]c(SCC(=O)Nc2cccc(C(F)(F)F)c2)n1`, the Potency was inconclusive: 35.5 µM [inhibitor, single point].
For `O=C(CSc1nc2ccccc2c(=O)n1Cc1ccccc1)NCc1ccco1`, the Potency was “inactive”.
With `Cc1cc(C)n(Cc2cc(C(=O)O)c3ccccc3n2)n1` the Potency was inconclusive: 12.6 µM [inhibitor, partial curve].
`COc1cc(C(=O)N/N=C/c2ccc3c(c2)c2ccccc2n3C)ccc1O` was tested, and the Potency was “inactive”.
With `CCOC(=O)c1cc(-c2ccccc2)nc2nc(N3CCCCC3)sc12` the Potency was inconclusive: 8.91 µM [inhibitor, single point].
`CCOc1ccc(C(F)(F)F)cc1NC(C)=O` was tested, and the Potency was “inactive”.
For `O=C(N/N=C/c1cccc(Cl)c1Cl)Nc1ccccc1`, the Potency was inconclusive: 44.7 µM [inhibitor, single point].
With `CCc1ccc(NC(=O)CN(c2ccccc2)S(=O)(=O)N(C)C)cc1` the Potency was inconclusive: 17.8 µM [inhibitor, single point].
In the case of `COc1cc(C2CC(=O)N3CN(Cc4ccco4)CSC3=C2C#N)ccc1OCc1ccccc1` (stereo unspecified), the Potency is reported as “inactive”.
In the case of `OCCNC(=S)Nc1ccc2nsnc2c1`, the Potency is reported as “inactive”.
In the case of `CCOC(=O)N/N=C1/C[C@@H](O)[C@@H](O)[C@@H]2[C@@H]3C(=O)N(C4CCCCC4)C(=O)[C@H]3CC[C@H]12`, the Potency is reported as inconclusive: 3.55 µM [inhibitor, single point].
`COC(=O)c1cc(-c2ccc(C)o2)nc2ccccc12` was tested, and the Potency was inconclusive: 35.5 µM [inhibitor, single point].
In the case of `CC(C)CNc1nc(S(=O)(=O)c2ccccc2)c(Cl)s1`, the Potency is reported as “inactive”.
`CC(C)CCNC(=O)NC(=O)COC(=O)CCN=C1NS(=O)(=O)c2ccccc21` was tested, and the Potency was inconclusive: 35.5 µM [inhibitor, single point].
In the case of `CC[N+](CC)(CC)CCCCOc1ccc2c(c1)C(=O)c1cc(OCCCC[N+](CC)(CC)CC)ccc1-2`, the Potency is reported as inconclusive: 25.1 µM [inhibitor, single point].
`Cc1onc(-c2c(F)cccc2Cl)c1C(=O)c1ccccc1` was tested, and the Potency was inconclusive: 22.4 µM [inhibitor, single point].
In the case of `COc1ccc(-c2c3c(=O)n(C)c(=O)n(C)c3cn2-c2ccc(O)cc2)cc1`, the Potency is reported as inconclusive: 12.6 µM [inhibitor, partial curve, poor fit].
With `O=C(O)CCC/C=C\C[C@@H]1C(/C=C/[C@@H](O)COc2cccc(C(F)(F)F)c2)[C@@H](O)C[C@@H]1O` (stereo partly specified) the Potency was “inactive”.
In the case of `Cc1cc(C)c2c(c1)c(C)cc1nnc(SCC(=O)c3cccs3)n12`, the Potency is reported as inconclusive: 44.7 µM [inhibitor, single point].
`Cc1ccc(C(=O)NC(=S)NCc2ccco2)cc1` was tested, and the Potency was inconclusive: 44.7 µM [inhibitor, single point].
In the case of `CCCc1nn(-c2cc(Cl)ccc2OC)c2c1C(=O)CCC2`, the Potency is reported as inconclusive: 1 µM [inhibitor, single point].
`Cc1cc(/C=C2/C(=O)NN(c3ccccc3)C2=O)c(C)n1-c1cccc(O)c1` was tested, and the Potency was “inactive”.
With `C=CCN1CN=C(NS(=O)(=O)c2ccc(NC(C)=O)cc2)NC1` the Potency was inconclusive: 0.355 µM [inhibitor, single point].
